Experimental findings from patent US5716528A, “Peroxide water treatment process” (Domtar Inc., priority 1995, dated 1998) are described below.

Like-named read-outs stand apart in the source and are kept apart here.

Data set [1] is described as follows: Oxidation of pentachlorophenol by hydrogen peroxide/Fe2+, pH effect. The conditions noted are these: 18.7 ppm before reaction, 40 °C, 3 h.
The nature of data set [2]: Effect of ferrous iron as percent of peroxide on the oxidation of pentachlorophenol. The following applies: penta 57 ppm, pH 3.5.
For data set [3] the following is noted: phenol 1000 ppm.
For data set [4] the following is noted: phenol 1000 ppm, peroxide/phenol 3:1.
For data set [5] the following is noted: 100 ppm before reaction, 40 °C, 3 h.
A short description of data set [6]: Oxidation of wood preserving plant process water, effect of catalyst concentration. The following applies: phenol 67.2 ppm.
The nature of data set [7]: Oxidation of wood preserving plant process water, effect of peroxide/COD weight ratio. The conditions noted are these: phenols 67.2 ppm, pH 3.5.

As to `Oc1c(Cl)c(Cl)c(Cl)c(Cl)c1Cl` [Pentachlorophenol, pentachlorophenol], the penta after reaction in data set [1] (pH 2.6) is recorded as 0.02 ppm; in data set [1] (pH 2.8), 0.02 ppm; in data set [1] (pH 3.6), 0.02 ppm; in data set [1] (pH 4.5), 1.38 ppm; in data set [1] (pH 5.3), 1.5 ppm; in data set [1] (pH 9.5), 17.4 ppm. Besides, the penta after reaction in data set [1] (pH 11.6) was found to be 17.4 ppm. Also, the Residual penta in data set [2] (Fe2+ 0.3% (w/w) of H2O2) is 45.8 ppm; in data set [2] (Fe2+ 0.6% (w/w) of H2O2) it was 40.8 ppm; in data set [2] (Fe2+ 1.8% (w/w) of H2O2), 2.3 ppm; in data set [2] (Fe2+ 2.5% (w/w) of H2O2) it was 1.6 ppm; in data set [2] (Fe2+ 2.9% (w/w) of H2O2), 4.36 ppm; in data set [2] (Fe2+ 3.9% (w/w) of H2O2), 1.4 ppm. Also, the Residual penta in data set [2] (Fe2+ 5% (w/w) of H2O2) is 0.88 ppm; in data set [2] (Fe2+ 6.3% (w/w) of H2O2), 0.95 ppm; in data set [2] (Fe2+ 9.5% (w/w) of H2O2), 0.97 ppm; in data set [2] (Fe2+ 12.7% (w/w) of H2O2), 0.98 ppm; in data set [2] (Fe2+ […] (w/w) of H2O2) it was 11.2 ppm.

For the molecule `Oc1ccccc1` [Phenol, phenol], the residual phenol in data set [3] (peroxide/phenol 1.5:1, Fe2+/H2O2 3% w/w) is recorded as 100 ppm; in data set [3] (peroxide/phenol 2:1, Fe2+/H2O2 2.25% w/w), 40 ppm; in data set [3] (peroxide/phenol 3:1, Fe2+/H2O2 1.5% w/w) it was < 0.02 ppm; in data set [4] (Fe2+ 0.5% (w/w) of H2O2) it was < 0.02 ppm; in data set [4] (Fe2+ 0.9% (w/w) of H2O2), < 0.02 ppm; in data set [4] (Fe2+ 1.5% (w/w) of H2O2) it was < 0.02 ppm. Besides, the residual phenol is reported as < 0.02 ppm in data set [4] (Fe2+ 3.7% (w/w) of H2O2); 20 ppm in data set [4] (Fe2+ 500 ppm, 17% (w/w) of H2O2); 20 ppm in data set [4] (Fe2+ 1000 ppm, 33% (w/w) of H2O2); < 0.02 ppm in data set [6] (Fe2+ 25.1 ppm, […] (w/w) of H2O2, pH 3.5); < 0.02 ppm in data set [6] (Fe2+ 50.2 ppm, 2.4% (w/w) of H2O2, pH 3.5); < 0.02 ppm in data set [6] (Fe2+ 100.4 ppm, 4.8% (w/w) of H2O2, pH 3.5). In addition, the residual phenol is on record as > 50 ppm in data set [6] (Fe2+ 150 ppm, 7.1% (w/w) of H2O2, pH 11.5); < 0.02 ppm in data set [6] (Fe2+ 150.7 ppm, 7.2% (w/w) of H2O2, pH 3.5); < 0.02 ppm in data set [6] (Fe2+ 202 ppm, 9.6% (w/w) of H2O2, pH 3.5); < 0.02 ppm in data set [7] (H2O2/COD 0.3); < 0.02 ppm in data set [7] (H2O2/COD 0.45); < 0.02 ppm in data set [7] (H2O2/COD 0.6). For the same molecule, the residual phenol in data set [7] (H2O2/COD 0.9), in data set [7] (H2O2/COD 1.04), in data set [7] (H2O2/COD 1.19) and in data set [7] (H2O2/COD 1.3) was < 0.02 ppm throughout. Also, the phenol after reaction is listed as < 0.02 ppm in data set [5] (pH 3.6), 60 ppm in data set [5] (pH 7), 75 ppm in data set [5] (pH 9) and 75 ppm in data set [5] (pH 11.6).
